A short description of the assay: qHTS Assay for Modulators of Lamin A Splicing. As to conditions: HeLa LMNA splicing GFP/RFP minigene ratio, 48 h. The method in brief:
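S3 HeLa stable clones carrying a lamin A-EGFP splicing minigene plus DsRed2 were seeded at 600 cells/well in Opti-MEM with 2% FBS, pin-dosed and incubated 48 h at 37°C. Acumen cytometry (488 nm) gave the GFP/RFP total-intensity ratio.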
Background: Quantitative high-throughput screening tests each substance at several concentrations.

Where [1] appears, read: measured here: RFP viability control channel.
[2] abbreviates: measured here: GFP splicing reporter channel.

“And” between values parts separate entries of the source, which are not always exact repeats. Identical values can stand only once. Some of the results follow. Shown are side measurements of this screen, not its main read-out; they come without a call. Most of these compounds were active or inconclusive in the main read-out, so they are no random draw. Potencies come from curve fits of mixed quality, noted in brackets.

In the case of `COc1cnc(-c2ccccn2)nc1Oc1ccccc1`, the AC50 (as a rule, the concentration giving half of the maximal activity seen) under setting [1] was 0.794 µM [rising, full curve, poor fit].

For `Cc1ccc(CN2C(=O)/C(=C\c3ccc(C(=O)NCc4cccnc4)cc3)Oc3ccccc32)cc1`, the AC50 under setting [1] is 7.94 µM [rising, partial curve, poor fit].

Take `CCOC(=O)c1c(-c2ccc(C)o2)csc1NC(=O)CSc1ncn[nH]1`: the AC50 under setting [2] is 22.4 µM [rising, partial curve, poor fit].

`Cc1nonc1OCCNc1ccc([N+](=O)[O-])cc1[N+](=O)[O-]`: the half-maximal activity concentration (AC50) under setting [2] was 35.5 µM [falling, single point].

With `Cc1c(C(=O)NCc2cccnc2)oc2ccccc12`, the AC50 under setting [2] was 10 µM [rising, partial curve, poor fit].

For the compound `C/C(=N/OCC(=O)NCCCCCCNC(=O)CO/N=C(/C)c1cccs1)c1cccs1`, the AC50 is 12.6 µM [rising, single point] under setting [2] and 22.4 µM [rising, single point] under setting [1].

As for `COc1cccc(CNC(=O)c2ccc3nc(-c4ccc(F)cc4)c(-c4ccc(F)cc4)nc3c2)c1`, the concentration at half-maximal activity (AC50) under setting [2] is 0.0316 µM [falling, full curve, poor fit].

As for `O=C(Nc1cccc(S(=O)(=O)N2CCCCC2)c1)c1ccc2ccccc2n1`, the AC50 is 14.1 µM [rising, single point] under setting [2] and 25.1 µM [rising, single point] under setting [1].

For `CN(C)C(=O)c1ccc(-c2ccc3ncnc(N(C)C)c3c2)cc1`, under setting [1], the half-maximal activity concentration (AC50) was 0.447 µM [falling, full curve, poor fit].

As to `Cc1nn2cc(-c3cccc(Cl)c3)cnc2c1Cl`, the AC50 is 35.5 µM [rising, single point] under setting [2] and 31.6 µM [rising, single point] under setting [1].

`O=C(NNC(=S)NC1CCCCC1)c1ccccc1O`: the AC50 under setting [1] is 2.82 µM [rising, full curve].

With `O=C1CC(=C(c2ccccc2)c2ccccc2)C(=O)N1CCCCN1CCN(c2cccc(Cl)c2)CC1`, the AC50 by setting is: under setting [2], 12.6 µM [rising, single point]; under setting [1], 22.4 µM [rising, single point].

In the case of `CNC(=S)NNc1nncc2ccccc12`, the AC50 under setting [1] was 20 µM [falling, single point].

As to `CC1CC(O)(Cc2ccccc2)C(C)CN1C` (stereo unspecified), the half-maximal activity concentration (AC50) reads like this: under setting [2], 3.55 µM [falling, full curve, poor fit]; under setting [1], 4.47 µM [falling, single point].

As to `Cc1ccc(S(=O)(=O)N2CCN(CC(=O)Nc3ccc([N+](=O)[O-])cc3)CC2)cc1C`, the concentration at half-maximal activity (AC50) under setting [1] was 15.8 µM [rising, single point].

On to `CCOC(=O)c1c(C)[nH]c(C(=O)N/N=C/c2cccc(OC)c2)c1C`, for which the AC50 under setting [1] is 25.1 µM [rising, partial curve].

Consider `C=CCn1c(SCc2c(C)noc2C)nc2sc3c(c2c1=O)CCCCC3`, for which the concentration at half-maximal activity (AC50) under setting [1] was 35.5 µM [rising, single point].

Turning to `O=C(c1ccccc1)C(CCC(CN1CCOCC1)C(=O)c1ccccc1)CN1CCOCC1` (stereo unspecified), under setting [2], the half-maximal activity concentration (AC50) was 31.6 µM [rising, single point].

With `CCCCOc1ccc(C(=O)N/C(=C/C=C/c2ccccc2)C(=O)NC)cc1`, under setting [1], the concentration at half-maximal activity (AC50) was 35.5 µM [rising, single point].

Take `CCn1c(-c2cc(Br)cc(OC)c2O)nc2cc(S(=O)(=O)N(C)C)ccc21`: the AC50 by setting is: under setting [2], 17.8 µM [rising, single point]; under setting [1], 15.8 µM [rising, partial curve].

For `Cc1ccc(S(=O)(=O)N2CCCCC2)cc1NC(=O)CCOc1ccccc1`, the AC50 under setting [1] was 31.6 µM [rising, single point].

For `COc1ccc(CC(=O)N2N=C(C)CC2(O)c2cccnc2)cc1` (stereo unspecified), the AC50 was 3.16 µM [falling, full curve] under setting [2] and 3.16 µM [falling, full curve] under setting [1].

Consider `O=C(/C=C/c1ccc(F)cc1)Nc1nc2ccccc2[nH]1`, for which the AC50 under setting [2] was 0.355 µM [rising, partial curve].

With `CC(=O)C1=C(c2ccc(C)cc2)N(C(C)=O)n2c(nnc2C2CCCCC2)S1`, the half-maximal activity concentration (AC50) under setting [2] was 5.62 µM [falling, partial curve, poor fit] and the AC50 under setting [1] was 2.82 µM [falling, partial curve].

Take `O=c1cc(-c2ccccc2)[nH]c2cc(Cl)ccc12`: the AC50 under setting [2] is 3.98 µM [rising, full curve] and the AC50 under setting [1] is 2.82 µM [rising, full curve].

Regarding `CCOC(=O)c1c(NC(=O)CSc2nnc(-c3ccccc3)n2CC)sc(C(C)=O)c1C`, the half-maximal activity concentration (AC50) is 10 µM [rising, single point] under setting [2] and 14.1 µM [rising, single point] under setting [1].

In the case of `Cc1cccc(CS(=O)(=O)c2nnc([C@H](Cc3ccccc3)NC(=O)OC(C)(C)C)o2)c1`, the AC50 is, setting by setting: under setting [2], 35.5 µM [falling, single point]; under setting [1], 35.5 µM [falling, single point].

Take `CCOc1ccc(OCC)c(NC(=O)CN2CCN(c3cc(C)ccc3C)CC2)c1`: the AC50 by setting is: under setting [2], 3.16 µM [rising, full curve, poor fit]; under setting [1], 8.91 µM [rising, partial curve].

As to `O=C(c1cccs1)N1CCC(c2nc3ccccc3s2)CC1`, the AC50 under setting [2] was 5.01 µM [rising, partial curve, poor fit].

In the case of `Cc1nn(C(C)(C)C)c(OC(=O)c2ccc3c(c2)OCO3)c1S(=O)(=O)c1ccccc1`, the AC50 runs as follows: under setting [2], 35.5 µM [falling, single point]; under setting [1], 35.5 µM [falling, single point].

As for `COc1ccc(OC)c(S(=O)(=O)NCC(c2ccc(N(C)C)cc2)N2CCOCC2)c1` (stereo unspecified), the concentration at half-maximal activity (AC50) under setting [1] was 0.0316 µM [rising, full curve, poor fit].

For `Cc1ccccc1NC(=O)c1cc(S(=O)(=O)c2ccccc2)ccc1Cl`, under setting [1], the AC50 was 15.8 µM [rising, single point].

As for `O=C(Cn1cc(F)c(=O)[nH]c1=O)NCCO`, the half-maximal activity concentration (AC50) under setting [1] is 12.6 µM [rising, single point].

For the compound `Cc1ccc(/C=N/NC(=O)c2cc(-c3cccnc3)nc3ccccc23)cc1`, under setting [1], the half-maximal activity concentration (AC50) is 20 µM [rising, partial curve, poor fit].

Turning to `CCOC(=O)c1c(-c2cccc([N+](=O)[O-])c2)csc1NC(=O)C1CCCCC1`, the half-maximal activity concentration (AC50) is 11.2 µM [rising, single point] under setting [2] and 20 µM [rising, single point] under setting [1].

As to `CCc1cc2c(=O)n(CCC(C)C)c(=S)[nH]c2s1`, the AC50 under setting [1] was 31.6 µM [rising, single point].

Regarding `COc1cc(/C=C/C(=O)CC(=O)/C=C/c2ccc(O)c(OC)c2)ccc1O`, the AC50 under setting [2] is 35.5 µM [falling, single point]; the AC50 under setting [1] is 1.78 µM [falling, partial curve, poor fit] and 35.5 µM [rising, partial curve].

With `Cc1oc(-c2ccccc2F)nc1CS(=O)(=O)CC(=O)N1CCN(c2ccccc2)CC1`, the AC50 under setting [1] is 35.5 µM [rising, single point].

As for `CC(C)Nc1nc(-c2ccccc2)nnc1-c1ccccc1`, the AC50 is 12.6 µM [falling, partial curve, poor fit] under setting [2] and 25.1 µM [falling, partial curve, poor fit] under setting [1].

As for `O=C(N[C@@H](Cc1ccccc1)c1nc2ccccc2[nH]1)c1cc([N+](=O)[O-])ccc1Cl`, under setting [1], the concentration at half-maximal activity (AC50) is 0.251 µM [rising, partial curve].

As to `Cc1ccc(NC(=O)c2cc(C(=O)c3cc(Cl)ccc3O)cn(-c3ccc(C)cc3)c2=O)cc1`, the AC50 is, setting by setting: under setting [2], 12.6 µM [rising, partial curve]; under setting [1], 12.6 µM [rising, partial curve].

For `CC(CNC(=O)c1ccc2c(c1)nc1n2CCCCC1)c1ccccc1` (stereo unspecified), the AC50 is, setting by setting: under setting [2], 0.282 µM [rising, full curve, poor fit]; under setting [1], 20 µM [rising, partial curve].

As to `C=CCOC(=O)c1[nH]c2c(c1C)C(=O)CC(c1ccco1)C2` (stereo unspecified), the half-maximal activity concentration (AC50) under setting [1] is 0.501 µM [rising, full curve].

`C/C(=N\S(=O)(=O)c1ccc(C)cc1)N1CCN(S(=O)(=O)c2ccccc2)C1`: the concentration at half-maximal activity (AC50) under setting [1] was 11.2 µM [rising, partial curve, poor fit].

Take `Cc1cc(N2C(=O)c3ccc(C(=O)NCc4ccccc4)cc3C2=O)no1`: the half-maximal activity concentration (AC50) under setting [1] is 35.5 µM [rising, single point].

For the compound `Cc1ccc(C2C(=O)N(C3CCC(C)CC3)CC(=O)N2C2CCCC2)cc1` (stereo unspecified), the AC50 under setting [1] was 2.51 µM [rising, full curve, poor fit].

In the case of `CC1CCCCN1Cc1c(O)ccc2c(=O)c(-c3nc4ccccc4s3)c(N)oc12` (stereo unspecified), the AC50 under setting [1] was 12.6 µM [rising, partial curve].

`COc1ccccc1N1CCN(C(=O)COc2ccc(C)cc2Br)CC1`: the half-maximal activity concentration (AC50) under setting [2] was 35.5 µM [rising, single point] and the AC50 under setting [1] is 25.1 µM [rising, single point].

In the case of `CCn1c(SCC(=O)N/N=C/c2ccc(C)s2)nc2ccccc21`, the AC50 under setting [1] is 12.6 µM [rising, partial curve].

For the compound `Cc1cc2nc3c(=O)[nH]c(=O)nc-3n(CC(O)C(O)C(O)COP(=O)(O)O)c2cc1C` (stereo unspecified), the AC50 by setting is: under setting [2], 22.4 µM [falling, single point]; under setting [1], 20 µM [falling, partial curve].

For the compound `Cc1cc(S(=O)(=O)NC2CCCCC2)ccc1OCC(=O)NCC1CCCO1` (stereo unspecified), the concentration at half-maximal activity (AC50) under setting [1] is 0.112 µM [falling, full curve, poor fit].

With `Cc1ccc(S(=O)(=O)CC2CSc3nc4ccccc4n32)cc1` (stereo unspecified), the concentration at half-maximal activity (AC50) reads like this: under setting [2], 0.794 µM [rising, full curve, poor fit]; under setting [1], 1.26 µM [rising, full curve].

Regarding `CCNc1ccc(Br)cc(C(=O)/C=C/c2ccc(Cl)cc2)c1=O`, the AC50 under setting [1] was 35.5 µM [rising, single point].

Regarding `OCC1(Cc2ccccc2)CCN(C2CCN(c3ccccc3F)CC2)CC1`, the AC50 under setting [2] is 12.6 µM [falling, partial curve, poor fit] and the AC50 under setting [1] was 8.91 µM [falling, full curve, poor fit].

The record behind these values is PubChem BioAssay AID1487 (National Center for Advancing Translational Sciences (NCATS), 2009).
